Experiment [1] deals with T1, STX8 (human (endogenous in HEK293)) (UniProt Q9UNK0).
T1 sequence: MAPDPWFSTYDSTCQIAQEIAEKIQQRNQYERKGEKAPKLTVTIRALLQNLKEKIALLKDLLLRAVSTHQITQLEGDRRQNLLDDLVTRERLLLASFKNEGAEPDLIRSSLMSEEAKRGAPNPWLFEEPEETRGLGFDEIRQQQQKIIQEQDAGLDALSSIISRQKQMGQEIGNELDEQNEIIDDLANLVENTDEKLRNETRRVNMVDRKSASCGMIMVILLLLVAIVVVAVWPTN
Nature of the experiment: cross-linking; XL-MS: intact early endosomes purified by Endo-IP (FLAG-EEA1, HEK293EL, eluted without detergent) in KPBS, 1 mM DSSO, room temperature, 40 min; XlinkX, 5% FDR.

Sequences of proteins named here, by UniProt entry; tags and fusion partners are left off.
UniProt Q15836: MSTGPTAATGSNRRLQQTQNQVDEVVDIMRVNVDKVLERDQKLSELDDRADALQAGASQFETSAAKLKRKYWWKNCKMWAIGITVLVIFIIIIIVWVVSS

Experiment [2] has as its target T2, ATP11B (human (endogenous in HEK293 and in H9-derived iNeurons)) (UniProt Q9Y2G3).
T2 sequence: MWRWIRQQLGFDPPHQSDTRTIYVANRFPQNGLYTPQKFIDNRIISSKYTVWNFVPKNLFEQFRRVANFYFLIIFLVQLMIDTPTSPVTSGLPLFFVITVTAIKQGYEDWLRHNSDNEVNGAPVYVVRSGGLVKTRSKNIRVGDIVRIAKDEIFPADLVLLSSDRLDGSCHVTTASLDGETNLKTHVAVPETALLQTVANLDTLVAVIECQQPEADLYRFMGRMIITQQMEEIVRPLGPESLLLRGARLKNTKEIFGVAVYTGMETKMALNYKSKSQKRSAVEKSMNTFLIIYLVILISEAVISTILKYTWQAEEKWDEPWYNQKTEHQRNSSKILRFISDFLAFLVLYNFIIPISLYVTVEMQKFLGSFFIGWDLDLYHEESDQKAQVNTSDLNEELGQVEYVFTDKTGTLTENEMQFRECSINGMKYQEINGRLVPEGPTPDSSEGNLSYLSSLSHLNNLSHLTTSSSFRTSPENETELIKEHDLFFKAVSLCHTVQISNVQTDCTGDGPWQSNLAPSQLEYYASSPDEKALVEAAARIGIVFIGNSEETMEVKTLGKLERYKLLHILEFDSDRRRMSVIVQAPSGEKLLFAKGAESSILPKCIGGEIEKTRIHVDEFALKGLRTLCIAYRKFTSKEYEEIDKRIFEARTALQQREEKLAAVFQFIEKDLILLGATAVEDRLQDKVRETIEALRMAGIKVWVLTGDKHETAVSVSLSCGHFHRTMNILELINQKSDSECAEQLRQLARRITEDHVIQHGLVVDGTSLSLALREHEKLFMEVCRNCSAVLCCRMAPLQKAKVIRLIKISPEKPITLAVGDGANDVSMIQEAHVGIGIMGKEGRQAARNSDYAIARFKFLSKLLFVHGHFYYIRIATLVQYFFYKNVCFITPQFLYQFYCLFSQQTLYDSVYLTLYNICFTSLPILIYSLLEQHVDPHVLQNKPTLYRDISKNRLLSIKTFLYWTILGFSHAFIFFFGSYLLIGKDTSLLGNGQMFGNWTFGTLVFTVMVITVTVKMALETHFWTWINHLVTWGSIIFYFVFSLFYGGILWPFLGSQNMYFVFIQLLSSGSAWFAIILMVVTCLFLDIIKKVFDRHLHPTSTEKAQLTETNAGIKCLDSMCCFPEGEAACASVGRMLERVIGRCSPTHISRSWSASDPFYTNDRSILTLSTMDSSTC
Nature of the experiment: native gel or EMSA; BN-MS: endosomal pellets (Endo-IP, HEK293EL) extracted with 0.5% DDM in KPBS, 4-16% NativePAGE at 4°C, 48 slices, DIA-MS; co-migration of elution profiles. (In general: In EMSA bound probe runs differently from free probe, usually more slowly.)

Experiment [3] deals with T3, 3xFlag-ATP11B (human) (UniProt Q9Y2G3).
T3 sequence: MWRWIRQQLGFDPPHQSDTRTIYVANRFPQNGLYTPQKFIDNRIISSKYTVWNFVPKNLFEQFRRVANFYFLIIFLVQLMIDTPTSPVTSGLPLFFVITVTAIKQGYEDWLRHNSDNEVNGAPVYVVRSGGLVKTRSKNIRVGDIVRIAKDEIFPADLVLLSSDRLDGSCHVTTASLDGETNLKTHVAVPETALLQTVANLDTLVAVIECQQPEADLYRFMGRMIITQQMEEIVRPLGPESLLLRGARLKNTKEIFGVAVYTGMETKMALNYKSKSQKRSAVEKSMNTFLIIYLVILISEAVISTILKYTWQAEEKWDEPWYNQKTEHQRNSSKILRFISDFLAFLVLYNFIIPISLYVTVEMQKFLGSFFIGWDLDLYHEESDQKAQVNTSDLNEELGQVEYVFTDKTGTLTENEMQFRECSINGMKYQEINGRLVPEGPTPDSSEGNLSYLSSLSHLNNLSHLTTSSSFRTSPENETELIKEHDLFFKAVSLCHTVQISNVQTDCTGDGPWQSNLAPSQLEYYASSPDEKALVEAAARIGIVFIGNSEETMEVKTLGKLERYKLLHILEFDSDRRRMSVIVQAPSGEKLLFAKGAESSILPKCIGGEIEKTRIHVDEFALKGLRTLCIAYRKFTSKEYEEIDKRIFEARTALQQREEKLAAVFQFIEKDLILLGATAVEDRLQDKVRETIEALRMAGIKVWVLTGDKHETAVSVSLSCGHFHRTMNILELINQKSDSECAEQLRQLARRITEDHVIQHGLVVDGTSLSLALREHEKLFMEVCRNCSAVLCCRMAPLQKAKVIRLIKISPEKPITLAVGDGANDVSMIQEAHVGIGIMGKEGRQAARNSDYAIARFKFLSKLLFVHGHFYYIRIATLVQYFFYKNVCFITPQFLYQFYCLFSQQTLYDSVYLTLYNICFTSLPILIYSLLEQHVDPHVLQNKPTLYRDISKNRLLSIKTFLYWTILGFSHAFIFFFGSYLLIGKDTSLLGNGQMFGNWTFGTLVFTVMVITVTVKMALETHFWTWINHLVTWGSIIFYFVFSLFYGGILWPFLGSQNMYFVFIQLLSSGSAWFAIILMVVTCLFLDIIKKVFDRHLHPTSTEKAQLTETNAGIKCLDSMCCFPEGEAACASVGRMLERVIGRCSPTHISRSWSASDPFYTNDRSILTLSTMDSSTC
The experiment in a line: co-IP; HEK293 cells transfected for 48 h; extraction with 0.5% DDM, 25 mM HEPES pH 7.4, 150 mM NaCl; anti-HA or anti-Flag magnetic beads, 2 h, 4°C; immunoblot.

Experiment [4] deals with T4, 3xHA-TMEM230 (human) (UniProt Q96A57).
T4 sequence: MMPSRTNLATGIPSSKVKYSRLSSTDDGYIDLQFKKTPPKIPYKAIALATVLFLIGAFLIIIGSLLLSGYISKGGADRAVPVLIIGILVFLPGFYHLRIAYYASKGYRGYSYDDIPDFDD
The description is as above.

In experiment [5] the target is T5, 3xHA-TMEM230 triple mutant (Y29C, R78L, X121W) (human) (UniProt Q96A57).
T5 sequence: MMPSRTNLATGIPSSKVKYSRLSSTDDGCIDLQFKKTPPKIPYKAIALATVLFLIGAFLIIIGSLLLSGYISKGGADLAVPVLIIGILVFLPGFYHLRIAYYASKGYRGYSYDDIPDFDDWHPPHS
The experiment is described as above.

The target in experiment [6] is VAMP3 (human (endogenous in HEK293)) (UniProt Q15836). Nature of the experiment: cross-linking; XL-MS: intact early endosomes purified by Endo-IP (FLAG-EEA1, HEK293EL, eluted without detergent) in KPBS, 1 mM DSSO, room temperature, 40 min; XlinkX, 5% FDR.
The target of experiment [7] is T6, VAMP8 (human (endogenous in HEK293)) (UniProt Q9BV40).
T6 sequence: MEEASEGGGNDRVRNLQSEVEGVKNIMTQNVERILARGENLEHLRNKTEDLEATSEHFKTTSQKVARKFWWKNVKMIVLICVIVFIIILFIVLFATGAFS
The experiment is described as above.

No constants are given. Whether binding was seen depends on the method and setting. For some of these results: In cells and extracts the contact can be indirect. Some binding calls cover weakened binding; strength is not graded here. For some of these results: Where a sequence is shown, tags or fusion partners need not be part of it.

Consider six molecules from article doi:10.1101/2025.02.07.636106.

B1: VPS16 (protein, UniProt Q9H269 1-839)
chain: MDCYTANWNPLGDSAFYRKYELYSMDWDLKEELRDCLVAAAPYGGPIALLRNPWRKEKAASVRPVLDIYSASGMPLASLLWKSGPVVSLGWSAEEELLCVQEDGAVLVYGLHGDFRRHFSMGNEVLQNRVLDARIFHTEFGSGVAILTGAHRFTLSANVGDLKLRRMPEVPGLQSAPSCWTVLCQDRVAHILLAVGPDLYLLDHAACSAVTPPGLAPGVSSFLQMAVSFTYRHLALFTDTGYIWMGTASLKEKLCEFNCNIRAPPKQMVWCSRPRSKERAVVVAWERRLMVVGDAPESIQFVLDEDSYLVPELDGVRIFSRSTHEFLHEVPAASEEIFKIASMAPGALLLEAQKEYEKESQKADEYLREIQELGQLTQAVQQCIEAAGHEHQPDMQKSLLRAASFGKCFLDRFPPDSFVHMCQDLRVLNAVRDYHIGIPLTYSQYKQLTIQVLLDRLVLRRLYPLAIQICEYLRLPEVQGVSRILAHWACYKVQQKDVSDEDVARAINQKLGDTPGVSYSDIAARAYGCGRTELAIKLLEYEPRSGEQVPLLLKMKRSKLALSKAIESGDTDLVFTVLLHLKNELNRGDFFMTLRNQPMALSLYRQFCKHQELETLKDLYNQDDNHQELGSFHIRASYAAEERIEGRVAALQTAADAFYKAKNEFAAKATEDQMRLLRLQRRLEDELGGQFLDLSLHDTVTTLILGGHNKRAEQLARDFRIPDKRLWWLKLTALADLEDWEELEKFSKSKKSPIGYLPFVEICMKQHNKYEAKKYASRVGPEQKVKALLLVGDVAQAADVAIEHRNEAELSLVLSHCTGATDGATADKIQRARAQAQKK
B1: the binding result in experiment [1] is “binds”.

B2: TMEM30A (protein, UniProt Q9NV96 1-361)
chain: MAMNYNAKDEVDGGPPCAPGGTAKTRRPDNTAFKQQRLPAWQPILTAGTVLPIFFIIGLIFIPIGIGIFVTSNNIREIEIDYTGTEPSSPCNKCLSPDVTPCFCTINFTLEKSFEGNVFMYYGLSNFYQNHRRYVKSRDDSQLNGDSSALLNPSKECEPYRRNEDKPIAPCGAIANSMFNDTLELFLIGNDSYPIPIALKKKGIAWWTDKNVKFRNPPGGDNLEERFKGTTKPVNWLKPVYMLDSDPDNNGFINEDFIVWMRTAALPTFRKLYRLIERKSDLHPTLPAGRYSLNVTYNYPVHYFDGRKRMILSTISWMGGKNPFLGIAYIAVGSISFLLGVVLLVINHKYRNSSNTADITI
Consider B2, for which, in experiment [2], the binding result is recorded as “binds”.

B3: TMEM30A-V5 (protein, UniProt Q9NV96 1-361)
chain: MAMNYNAKDEVDGGPPCAPGGTAKTRRPDNTAFKQQRLPAWQPILTAGTVLPIFFIIGLIFIPIGIGIFVTSNNIREIEIDYTGTEPSSPCNKCLSPDVTPCFCTINFTLEKSFEGNVFMYYGLSNFYQNHRRYVKSRDDSQLNGDSSALLNPSKECEPYRRNEDKPIAPCGAIANSMFNDTLELFLIGNDSYPIPIALKKKGIAWWTDKNVKFRNPPGGDNLEERFKGTTKPVNWLKPVYMLDSDPDNNGFINEDFIVWMRTAALPTFRKLYRLIERKSDLHPTLPAGRYSLNVTYNYPVHYFDGRKRMILSTISWMGGKNPFLGIAYIAVGSISFLLGVVLLVINHKYRNSSNTADITI
For the molecule B3, the binding result was “binds” in experiment [3], “binds” in experiment [4] and “no binding” in experiment [5].

B4: 3xFlag-ATP11B (protein, UniProt Q9Y2G3 1-1177)
chain: MWRWIRQQLGFDPPHQSDTRTIYVANRFPQNGLYTPQKFIDNRIISSKYTVWNFVPKNLFEQFRRVANFYFLIIFLVQLMIDTPTSPVTSGLPLFFVITVTAIKQGYEDWLRHNSDNEVNGAPVYVVRSGGLVKTRSKNIRVGDIVRIAKDEIFPADLVLLSSDRLDGSCHVTTASLDGETNLKTHVAVPETALLQTVANLDTLVAVIECQQPEADLYRFMGRMIITQQMEEIVRPLGPESLLLRGARLKNTKEIFGVAVYTGMETKMALNYKSKSQKRSAVEKSMNTFLIIYLVILISEAVISTILKYTWQAEEKWDEPWYNQKTEHQRNSSKILRFISDFLAFLVLYNFIIPISLYVTVEMQKFLGSFFIGWDLDLYHEESDQKAQVNTSDLNEELGQVEYVFTDKTGTLTENEMQFRECSINGMKYQEINGRLVPEGPTPDSSEGNLSYLSSLSHLNNLSHLTTSSSFRTSPENETELIKEHDLFFKAVSLCHTVQISNVQTDCTGDGPWQSNLAPSQLEYYASSPDEKALVEAAARIGIVFIGNSEETMEVKTLGKLERYKLLHILEFDSDRRRMSVIVQAPSGEKLLFAKGAESSILPKCIGGEIEKTRIHVDEFALKGLRTLCIAYRKFTSKEYEEIDKRIFEARTALQQREEKLAAVFQFIEKDLILLGATAVEDRLQDKVRETIEALRMAGIKVWVLTGDKHETAVSVSLSCGHFHRTMNILELINQKSDSECAEQLRQLARRITEDHVIQHGLVVDGTSLSLALREHEKLFMEVCRNCSAVLCCRMAPLQKAKVIRLIKISPEKPITLAVGDGANDVSMIQEAHVGIGIMGKEGRQAARNSDYAIARFKFLSKLLFVHGHFYYIRIATLVQYFFYKNVCFITPQFLYQFYCLFSQQTLYDSVYLTLYNICFTSLPILIYSLLEQHVDPHVLQNKPTLYRDISKNRLLSIKTFLYWTILGFSHAFIFFFGSYLLIGKDTSLLGNGQMFGNWTFGTLVFTVMVITVTVKMALETHFWTWINHLVTWGSIIFYFVFSLFYGGILWPFLGSQNMYFVFIQLLSSGSAWFAIILMVVTCLFLDIIKKVFDRHLHPTSTEKAQLTETNAGIKCLDSMCCFPEGEAACASVGRMLERVIGRCSPTHISRSWSASDPFYTNDRSILTLSTMDSSTC
As to B4, the binding entry in experiment [4] is recorded as “binds”; in experiment [5] it was “no binding”.

B5: 3xHA-TMEM230 (protein, UniProt Q96A57 1-120)
chain: MMPSRTNLATGIPSSKVKYSRLSSTDDGYIDLQFKKTPPKIPYKAIALATVLFLIGAFLIIIGSLLLSGYISKGGADRAVPVLIIGILVFLPGFYHLRIAYYASKGYRGYSYDDIPDFDD
Consider B5, for which the binding result in experiment [3] is on record as “binds”.

B6: PTTG1IP (protein, UniProt P53801 33-180)
chain: QEPPGAACSQNTNKTCEECLKNVSCLWCNTNKACLDYPVTSVLPPASLCKLSSARWGVCWVNFEALIITMSVVGGTLLLGIAICCCCCCRRKRSRKPDRSEEKAMREREERRIRQEERRAEMKTRHDEIRKKYGLFKEENPYARFENN
As to B6, the binding result in experiment [6] and in experiment [7] was “binds” each time.
